Patent US10172835B2, “Anticancer agent composition” (J-Pharma Co., Ltd., priority 2014, dated 2019)

System: CHOP
Assay: Western blot of CHOP protein levels, KO99L cells
Type: cell-based, murine
Settings: COMPOUND-JP 10.0 μM; Erw 2.5 units/ml
Description: Cell extracts were prepared using a cell lysis buffer (50 mM HEPES, pH 7.4, 150 mM NaCl, 20 mM EDTA, 100 mM NaF, 10 mM Na3VO4, 0.5% nonyl phenoxypolyethoxylethanol (NP40) supplemented with a cocktail of protease inhibitors. After SDS-PAGE separation and transfer to nitrocellulose immunoblotting was performed using the following antibodies against: Akt (Cell Signaling Technologies, #9272), CHOP (#2895), cleaved caspase 3 (#9664), c-Myc (#9402), eIF2a (#9721), 4EBP1 (#9644), LC3A/B (#12741), PARP (#9542), pJnk (T183/Y185) (#9251), pSer235-236-S6RP (#4856), pSer473-Akt (#9271), pSer65-4EBP1 (#9451) and S6RP (#2217); Bax (Sigma-Aldrich, B8429); PUMA (Abcam, ab54288); Bak (Millipore, 06536); ATF4 (Santa Cruz Biotechnologies, sc200), GADD34 (sc8327), Hsp60 (sc-1722), Hsp90 (sc-13119) and XBP1 (sc-7160); ATF6 (Imgenex, IMG-273).

Molecule	time of maximal CHOP expression
Nc1cc(COc2c(Cl)cc(C[C@H](N)C(=O)O)cc2Cl)c2oc(-c3ccccc3)nc2c1 [COMPOUND-JP, O-(5-amino-2-phenylbenzoxazole-7-yl)methyl-3,5-dichloro-L-tyrosine]	6.0 h
Erw: enzyme that can degrade extracellular asparagine, with higher glutaminase activity (protein, UniProt P06608 22-348, looked up) L-asparaginase: ADKLPNIVILATGGTIAGSAATGTQTTGYKAGALGVDTLINAVPEVKKLANVKGEQFSNMASENMTGDVVLKLSQRVNELLARDDVDGVVITHGTDTVEESAYFLHLTVKSDKPVVFVAAMRPATAISADGPMNLLEAVRVAGDKQSRGRGVMVVLNDRIGSARYITKTNASTLDTFKANEEGYLGVIIGNRIYYQNRIDKLHTTRSVFDVRGLTSLPKVDILYGYQDDPEYLYDAAIQHGVKGIVYAGMGAGSVSVRGIAGMRKAMEKGVVVIRSTRTGNGIVPPDEELPGLVSDSLNPAHARILLMLALTRTSDPKVIQEYFHTY	6.0 h
